# In all, about 300,000 compounds went through this assay and about 3,700 (1.2%) were called active. Inconclusive means that the source gave no clear call. Such entries were picked first, then a sample of the others. The call rests on the fitted dose curve; tested in HEK293 cells. Where the call is inconclusive, the potency comes from a doubtful curve fit.
# Assay: qHTS for Inhibitors of binding or entry into cells for Lassa Virus; further: nearly all actives have a fitted effect of over 50% in size
# Conditions: Lassa virus pseudotype entry inhibition, cell reporter; activity change, negative = inhibition: at 37.9 µM (top of the series) unless noted
# On the % scale 0 is the no-effect control and ±100 the full control effect; potency means the concentration at half of the fitted maximal effect.
SMILES,Potency,"activity change, negative = inhibition"
CCOC(=O)C1CCN(C(=O)c2nn(-c3ccc(C)cc3)c(=O)n(C)c2=O)CC1,"inconclusive: 35.5 µM [inhibitor, single point]",–
Cc1c(N2CCCC2)cc2c(c1N)C(C)(C)CC2(C)C,"inconclusive: 0.631 µM [inhibitor, full curve]",–
O=C(CCCOc1ccc(Cl)cc1Cl)Nc1ncccn1,"inconclusive: 0.501 µM [inhibitor, full curve, poor fit]",–
COC(=O)c1cc2oc(C)cc2n1Cc1ccc(Cl)cc1,–,inactive: -11.9% [at 46.1 µM]
O=C(O)Cn1c(=O)c(F)cn(C2CCCO2)c1=O (configuration not stated),–,inactive: 1.4%
O=C1NC(=O)/C(=C\c2ccc(OCc3cccc(C(=O)O)c3)c(Cl)c2)N1,active: 6.31 µM,–
c1ccc(Cc2ccc(OCCn3cncn3)cc2)cc1,–,inactive: 1.39%
N#Cc1ccc(NC(=O)COCc2cc(-c3ccc(F)cc3)on2)cc1,–,inactive: 15% [at 46.1 µM]
COc1ccc(C(=O)CSc2nnc(-c3ccoc3C)n2CC2CCCO2)cc1 (configuration not stated),–,inactive: 2.78%
CN(/N=C/c1ccccc1Cl)c1ncc(Cl)cc1C(F)(F)F,–,inactive: -14.7% [at 46.1 µM]
Cc1ccccc1OCC(=O)N/N=C/c1cn(Cc2ccccc2)c2ccccc12,"inconclusive: 1.26 µM [inhibitor, partial curve, poor fit]",–
COc1ccc(N(C(=O)Cc2cccs2)C(C(=O)NC2CCCCC2)c2cccn2C)cc1 (configuration not stated),–,inactive: 10.9%
C[C@H](NC(=O)N1CCC(Cc2ccccc2)CC1)C(=O)O,–,inactive: -4.74% [at 46.1 µM]
Cc1ccc(-n2ncc3c2CCCC3NC(=O)CCn2ccnc2C)cc1C (configuration not stated),–,inactive: -15.2%
COC(=O)c1sc(NC(=O)c2ccco2)nc1C,"inconclusive: 10 µM [activator, single point]",–
O=C(CSc1ccc(-c2ccccc2)nn1)N1CCCc2ccccc21,"inconclusive: 22.4 µM [inhibitor, single point]",–
COC(=O)c1ccc(/C=N/OCC(=O)NC2CCCC(C)C2C)cc1 (configuration not stated),"inconclusive: 1.83 µM [activator, partial curve, poor fit]",–
Cc1ccc(/C=N/NC(=O)c2nn(C)cc2Cl)cc1,"inconclusive: 12.6 µM [inhibitor, single point]",–
Cc1cccc(CCNC(=O)c2nc(-c3ccc(Cl)cc3)n3c2CCCCC3)c1,–,inactive: -22.9% [at 46.1 µM]
CCOC(=O)c1cc(CC)sc1NC(=O)CSc1nc2ccccc2c(=O)n1Cc1ccco1,"inconclusive: 35.5 µM [activator, single point]",–
Cn1cc([N+](=O)[O-])c(C(=O)NCc2cc3cc(Cl)ccc3[nH]2)n1,"inconclusive: 5.8 µM [inhibitor, single point]",–
c1ccc2c(OCCCCN3CCOCC3)cccc2c1,–,inactive: -1.2%
CCC1Oc2ccccc2N(CC(=O)NCc2ccc(C)cc2)C1=O (configuration not stated),"inconclusive: 12.6 µM [activator, partial curve, poor fit]",–
CC(Oc1ccc2ccccc2c1)C(=O)NNC(=S)NC(=O)c1ccco1 (configuration not stated),"inconclusive: 15.8 µM [inhibitor, single point]",–

SMILES,Potency,"activity change, negative = inhibition"
CC(=O)Nc1ccc(NC(=O)C(F)(F)F)cc1,–,inactive: -14.1%
S=c1[nH]nc(-c2ccco2)n1-c1ccc(Cl)cc1,–,inactive: 0.303% [at 46.1 µM]
CC1=C(C(=O)OC2CCCC2)C(c2cccc(Cl)c2Cl)CC(=O)N1 (configuration not stated),–,inactive: 14.7% [at 46.1 µM]
COc1cccc2cc(/C(=N/O)c3ccccc3)oc12,"inconclusive: 0.073 µM [inhibitor, full curve, poor fit]",–
Cc1ccc(/C=N/n2c(C3CCCCC3)n[nH]c2=S)o1,–,inactive: -9.66%
CC(CCc1ccc(O)cc1)NC(c1ccccc1)c1ccc(Cl)cc1 (configuration not stated),"inconclusive: 17.8 µM [inhibitor, partial curve, poor fit]",–
COc1ccc(CNC(=O)CN(C(=O)CCC(=O)Nc2nccs2)c2ccc(C)cc2)cc1,–,inactive: -9.21%
CCn1c(-c2nonc2N)nc2c(C#CC(C)(C)O)nc(CN3CCCC3)cc21,"inconclusive: 31.5 µM [inhibitor, single point]",–
COC(=O)c1ccccc1NC(=O)C12CC3CC(C1)CC(n1cnc(Cl)n1)(C3)C2,"inconclusive: 16.4 µM [inhibitor, partial curve]",–
CCOc1cccc(/C=N/NC(=S)Nc2cc(S(=O)(=O)N3CCOCC3)ccc2N2CCOCC2)c1O,"inconclusive: 13 µM [inhibitor, partial curve]",–
Cc1cccc(N2CCN(C(=O)c3ccc4c(c3)CCN4S(=O)(=O)c3ccccc3)CC2)c1C,"inconclusive: 12.6 µM [inhibitor, partial curve, poor fit]",–
CC1Cc2cc(S(=O)(=O)CCC(=O)NC3CCCCC3)ccc2N1C(=O)C1CC1 (configuration not stated),"inconclusive: 8.91 µM [inhibitor, partial curve, poor fit]",–
COc1ccc(N/C=C(\C(C)=O)c2ccc(OC)c(OC)c2)cc1OC,"inconclusive: 35.5 µM [inhibitor, single point]",–
O=C(O)c1ccccc1OCc1nc2ccccc2s1,"inconclusive: 35.5 µM [activator, partial curve, poor fit]",–
O=C(CSc1ncccc1C(=O)O)NC12CC3CC(CC(C3)C1)C2,–,inactive: -1.06%
Cc1cccc(C)c1N1CCN(C(=O)c2ccc3c(c2)OCO3)CC1,"inconclusive: 1.26 µM [activator, single point]",–
CCOc1ccccc1NC(=O)NC(CC)c1c(-n2cccc2)sc2c1CCN(C)C2 (configuration not stated),–,inactive: -24.7% [at 46.1 µM]
O=S(=O)(c1ccc(OCC(O)CN2CCN(c3ccccc3Cl)CC2)cc1)N1CCOCC1 (configuration not stated),"inconclusive: 0.259 µM [inhibitor, full curve, poor fit]",–
CC(NC(=O)c1cccnc1)C(c1cccs1)N1CCN(c2ccccc2F)CC1 (configuration not stated),"inconclusive: 35.5 µM [inhibitor, partial curve, poor fit]",–
CCCc1ccc(C(=O)NNc2cccc(C)c2)cc1,"inconclusive: 8.91 µM [inhibitor, partial curve]",–
COc1cccc(OCc2cc(C3Nc4ccccc4C(=O)N3Cc3ccco3)ccc2OC)c1 (configuration not stated),active: 8.91 µM,–
COc1cccc(N2CCN(CC(=O)Nc3nnc(-c4ccccc4)s3)CC2)c1,active: 0.794 µM,–
O=C(C1CCCO1)N1CCN(C(=S)Nc2ccc(Br)cc2)CC1 (configuration not stated),"inconclusive: 35.5 µM [inhibitor, single point]",–
Cc1ccc(-c2nc(CS(=O)CC(=O)O)c(C)o2)cc1 (configuration not stated),"inconclusive: 4.47 µM [inhibitor, single point]",–

SMILES,Potency,"activity change, negative = inhibition"
Cc1nn(-c2cccc(Cl)c2)c(Cl)c1/C=N/NC(=O)c1cccs1,"inconclusive: 6.31 µM [inhibitor, single point]",–
CC(C)n1ncc2c(C(=O)NCCc3ccc(F)cc3)cc(C3CC3)nc21,"inconclusive: 0.398 µM [inhibitor, full curve, poor fit]",–
CCCCCC1CCC(C(=O)N2CCOCC2)CC1 (configuration not stated),–,inactive: -11.7%
CC(=O)c1cc(-c2ccccc2)n(CC(=O)Nc2ccc(C)cc2C)c1C,–,inactive: 2.61% [at 46.1 µM]
Nc1nonc1-c1nc2ccccc2n1CC(=O)Nc1ccc(F)cc1,"inconclusive: 22.4 µM [inhibitor, single point]",–
CCN=C1NN=C(c2ccc(C)cc2)CS1,"inconclusive: 29.1 µM [inhibitor, single point]",–
Cn1c(SCC(=O)Nc2ccccc2F)nc2c([nH]c3ccccc32)c1=O,"inconclusive: 35.5 µM [inhibitor, single point]",–
CCOC(=O)C1(CCCc2ccccc2)CCN(C(=O)Cc2nonc2C)CC1,"inconclusive: 10 µM [inhibitor, partial curve, poor fit]",–
COc1ccc(CN(CCCN2CCOCC2)C(=O)Nc2ccccc2)cc1OC,"inconclusive: 29.1 µM [activator, single point]",–
CCOc1ccc(C(=O)NCc2ccccn2)cc1,–,inactive: -1.69%
Cc1occc1C(=O)Nc1ccc2ccccc2c1,"inconclusive: 35.5 µM [inhibitor, single point]",–
Cc1c(Cl)cccc1NC(=O)c1cc(-c2ccccc2O)n[nH]1,"inconclusive: 10 µM [activator, partial curve]",–
COc1ccc(NC(=O)c2ccc(Br)o2)cc1,"inconclusive: 6.51 µM [activator, single point]",–
CCc1ccc(S(=O)(=O)Nc2cccc(C3OCCCO3)c2)cc1,"inconclusive: 20 µM [inhibitor, partial curve, poor fit]",–
CCCC(C)C(=O)Nc1ccc(Cl)cn1 (configuration not stated),–,inactive: 0%
CCCCC1(Cc2ccc([N+](=O)[O-])cc2)C(=O)N(c2ccccc2)N(c2ccccc2)C1=O,"inconclusive: 25.9 µM [inhibitor, single point]",–
CCOc1ccc(NC(=O)Nc2nc3ccc(S(C)(=O)=O)cc3s2)cc1,–,inactive: -12.5%
C[C@@H](C(=O)NCc1ccc(S(C)(=O)=O)cc1)[C@@H]1C[C@@]1(C)[C@@H](NC(=O)OCc1ccccc1)c1ccccc1,"inconclusive: 20.6 µM [inhibitor, single point]",–
CCN(c1ccccc1)S(=O)(=O)c1ccc(C(=O)Nc2cc(C)ccn2)cc1,"inconclusive: 35.5 µM [inhibitor, single point]",–
CC(C)NC(=O)C1CCN(C(=O)c2ccc(-c3ccccc3)cc2)CC1,–,inactive: 4.7%
S=C(c1cn(Cc2ccc(Br)cc2)c2ccccc12)N1CCOCC1,"inconclusive: 35.5 µM [inhibitor, partial curve, poor fit]",–
NS(=O)(=O)c1ccc(NC(=S)NCc2ccccc2)cc1,–,inactive: 9.37%
CCOC(=O)C1CCCN(C2=NC(=O)/C(=C/c3ccc(N(C)C)cc3)S2)C1 (configuration not stated),"inconclusive: 1 µM [inhibitor, partial curve, poor fit]",–
CCc1ccccc1NC(=O)CSc1nccn1C,–,inactive: -4.8% [at 46.1 µM]

# A run of entries taken from the entries so far, for reference:
SMILES,Potency,"activity change, negative = inhibition"
Nc1nonc1-c1nc2ccccc2n1CC(=O)Nc1ccc(F)cc1,"inconclusive: 22.4 µM [inhibitor, single point]",–
CCN=C1NN=C(c2ccc(C)cc2)CS1,"inconclusive: 29.1 µM [inhibitor, single point]",–
Cn1c(SCC(=O)Nc2ccccc2F)nc2c([nH]c3ccccc32)c1=O,"inconclusive: 35.5 µM [inhibitor, single point]",–
CCOC(=O)C1(CCCc2ccccc2)CCN(C(=O)Cc2nonc2C)CC1,"inconclusive: 10 µM [inhibitor, partial curve, poor fit]",–
COc1ccc(CN(CCCN2CCOCC2)C(=O)Nc2ccccc2)cc1OC,"inconclusive: 29.1 µM [activator, single point]",–
CCOc1ccc(C(=O)NCc2ccccn2)cc1,–,inactive: -1.69%
Cc1occc1C(=O)Nc1ccc2ccccc2c1,"inconclusive: 35.5 µM [inhibitor, single point]",–
Cc1c(Cl)cccc1NC(=O)c1cc(-c2ccccc2O)n[nH]1,"inconclusive: 10 µM [activator, partial curve]",–
COc1ccc(NC(=O)c2ccc(Br)o2)cc1,"inconclusive: 6.51 µM [activator, single point]",–
CCc1ccc(S(=O)(=O)Nc2cccc(C3OCCCO3)c2)cc1,"inconclusive: 20 µM [inhibitor, partial curve, poor fit]",–
CCCC(C)C(=O)Nc1ccc(Cl)cn1 (configuration not stated),–,inactive: 0%
CCCCC1(Cc2ccc([N+](=O)[O-])cc2)C(=O)N(c2ccccc2)N(c2ccccc2)C1=O,"inconclusive: 25.9 µM [inhibitor, single point]",–
CCOc1ccc(NC(=O)Nc2nc3ccc(S(C)(=O)=O)cc3s2)cc1,–,inactive: -12.5%
C[C@@H](C(=O)NCc1ccc(S(C)(=O)=O)cc1)[C@@H]1C[C@@]1(C)[C@@H](NC(=O)OCc1ccccc1)c1ccccc1,"inconclusive: 20.6 µM [inhibitor, single point]",–

# — PubChem BioAssay AID540256 (National Center for Advancing Translational Sciences (NCATS), 2011)
